Assay results taken from patent US20260028406A1.
No constants are given. Whether binding was seen depends on the method and setting. Some results given as binding are weak or reduced against the parent protein; the word gives no strength. For part of these data: Where a sequence is shown, tags or fusion partners need not be part of it.

Legend:
[1] = biological target: tenascin C in tumor ECM (LM2 tumors and lung metastases grown in NSG mice) (Homo sapiens (Human)) (UniProt P24821); assay: immunohistochemistry (FIG. 12)
[2] = biological target: tenascin C in tumor ECM (LM2 tumors and lung metastases grown in NSG mice) (Homo sapiens (Human)) (UniProt P24821); assay: immunohistochemistry of lung metastases of LM2-ZsGreen-Luciferase cells in NSG mice
[3] = biological target: tenascin C in tumor ECM (LM2 tumors and lung metastases grown in NSG mice) (Homo sapiens (Human)) (UniProt P24821); assay: ex vivo fluorescence imaging by 2-photon microscopy after injection of Texas Red-labelled VHH
[4] = biological target: tenascin C in tumor ECM (LM2 tumors and lung metastases grown in NSG mice) (Homo sapiens (Human)) (UniProt P24821); assay: ex vivo two-photon microscopy of orthotopic LM2 tumors after injection of 20 ug Texas red-labelled VHH
[5] = biological target: tenascin C in tumor ECM (LM2 tumors and lung metastases grown in NSG mice) (Homo sapiens (Human)) (UniProt P24821); assay: in vivo binding by immuno-PET/CT with 64Cu-labeled NJT6 in mice bearing LM2 tumors and metastases

Binder | binding [1] | binding [2] | binding [3] | binding [4] | binding [5]
NJT4 nanobody (VHH) (VHH) VHH: QVQLVESGGGLVQPGGSLRLSCAASGFTFSSYTMRWYRQAPGKERELVAFIGVAGGSTKYADSVKGRFTISRDNTKNTVYLQMNTLKPEDTAVYYCYAPLTPYWGQGTQVTVSS | binds | binds |  |  | 
NJT4 site-specifically labelled with Texas Red via sortase-mediated tagging (VHH, Texas Red attached site-specifically via sortase-mediated tagging) VHH: QVQLVESGGGLVQPGGSLRLSCAASGFTFSSYTMRWYRQAPGKERELVAFIGVAGGSTKYADSVKGRFTISRDNTKNTVYLQMNTLKPEDTAVYYCYAPLTPYWGQGTQVTVSS |  |  | binds | binds | 
64Cu-labeled NJT6 (VHH, 64Cu label attached using sortagging) VHH: QVQLVETGGDLVQPGGSLRLSCAASGLTLDYYAIGWVRQAPGKEREGVSCITPQDGNTYYDDSVMGRFTILRDNAKNMVYLQMNNLKPEDTAVYFCAAAGALTLDPSEYEYWGQGTQVTVSS |  |  |  |  | binds

The remaining lines, values ahead:

binding [1] | binding [2] | binding [3] | binding [4] | binding [5] | Binder
binds | binds |  |  |  | NJT6 nanobody (VHH) (VHH) VHH: QVQLVETGGDLVQPGGSLRLSCAASGLTLDYYAIGWVRQAPGKEREGVSCITPQDGNTYYDDSVMGRFTILRDNAKNMVYLQMNNLKPEDTAVYFCAAAGALTLDPSEYEYWGQGTQVTVSS
 |  | binds | binds |  | NJT6 site-specifically labelled with Texas Red via sortase-mediated tagging (VHH, Texas Red attached site-specifically via sortase-mediated tagging) VHH: QVQLVETGGDLVQPGGSLRLSCAASGLTLDYYAIGWVRQAPGKEREGVSCITPQDGNTYYDDSVMGRFTILRDNAKNMVYLQMNNLKPEDTAVYFCAAAGALTLDPSEYEYWGQGTQVTVSS
